Measured values reported in PMC11427100.
These are yes or no findings as the source states them, for the method shown. In cells and extracts the contact can be indirect. Here binding means that the protein was enriched with, or labelled near, the bait; the list need not be complete.

Chains of the proteins cited; added tags and fusions are not shown.
UniProt Q6R891: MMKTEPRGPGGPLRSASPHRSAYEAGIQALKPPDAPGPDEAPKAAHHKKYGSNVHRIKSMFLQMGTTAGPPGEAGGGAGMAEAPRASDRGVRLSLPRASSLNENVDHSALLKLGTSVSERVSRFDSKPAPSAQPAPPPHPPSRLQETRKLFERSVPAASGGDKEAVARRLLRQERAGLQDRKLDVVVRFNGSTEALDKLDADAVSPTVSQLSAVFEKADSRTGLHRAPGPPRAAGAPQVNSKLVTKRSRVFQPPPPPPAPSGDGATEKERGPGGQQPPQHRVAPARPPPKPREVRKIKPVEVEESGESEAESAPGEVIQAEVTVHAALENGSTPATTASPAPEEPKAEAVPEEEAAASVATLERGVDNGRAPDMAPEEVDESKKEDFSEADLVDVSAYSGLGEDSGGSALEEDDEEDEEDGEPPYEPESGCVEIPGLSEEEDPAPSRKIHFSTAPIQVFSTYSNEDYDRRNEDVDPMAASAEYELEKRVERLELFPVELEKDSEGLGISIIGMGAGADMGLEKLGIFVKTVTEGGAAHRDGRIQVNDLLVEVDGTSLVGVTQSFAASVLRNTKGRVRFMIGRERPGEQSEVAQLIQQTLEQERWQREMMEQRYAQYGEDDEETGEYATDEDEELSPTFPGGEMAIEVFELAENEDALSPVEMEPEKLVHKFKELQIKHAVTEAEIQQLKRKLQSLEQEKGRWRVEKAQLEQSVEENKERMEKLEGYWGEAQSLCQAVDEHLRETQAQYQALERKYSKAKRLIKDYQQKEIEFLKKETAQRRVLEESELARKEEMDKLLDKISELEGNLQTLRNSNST

B1: Protein flightless-1 homolog (protein, UniProt Q9JJ28 1-1271)
chain: MEATGVLPFVRGVDLSGNDFKGGYFPENVKAMTSLRWLKLNRTGLCYLPEELAALQKLEHLSVSHNHLTTLHGELSSLPSLRAIVARANSLKNSGVPDDIFKLDDLSVLDLSHNQLTECPRELENAKNMLVLNLSHNGIDSIPNQLFINLTDLLYLDLSENRLESLPPQMRRLVHLQTLVLNGNPLLHAQLRQLPAMMALQTLHLRNTQRTQSNLPTSLEGLSNLSDVDLSCNDLTRVPECLYTLPSLRRLNLSSNQIAELSLCIDQWVHLETLNLSRNQLTSLPSAICKLTKLKKLYLNSNKLDFDGLPSGIGKLTSLEEFMAANNNLELIPESLCRCPKLKKLVLNKNRLVTLPEAIHFLTEIQVLDVRENPSLVMPPKPADRTAEWYNIDFSLQNQLRLAGASPATVAAAAAVGSGSKDPLARKMRLRRRKDSAQDVQAKQVLKGMSDVAQEKNKNQEESIDARAPGGKVRRWDQGLEKPRLDYSEFFTEDVGQLPGLTIWQIENFVPVLVEEAFHGKFYEADCYIVLKTFLDDSGSLNWEIYYWIGGEATLDKKACSAIHAVNLRNYLGAECRTVREEMGDESEEFLQVFDNDISYIEGGTASGFYTVEDTHYVTRMYRVYGKKNIKLEPVPLKGSSLDPRFVFLLDQGLDIYVWRGAQATLSNTTKARLFAEKINKNERKGKAEITLLVQGQEPPGFWDVLGGEPSEIKNHVPDDFWPPQPKLYKVGLGLGYLELPQINYKLSVEHKKRPKVELMPGMRLLQSLLDTRCVYILDCWSDVFIWLGRKSPRLVRAAALKLGQELCGMLHRPRHTVVSRSLEGTEAQVFKAKFKNWDDVLTVDYTRNAEAVLQGQGLSGKVKRDTEKTDQMKADLTALFLPRQPPMPLAEAEQLMEEWNEDLDGMEGFVLEGRKFTRLPEEEFGHFYTQDCYVFLCRYWVPVEYEEEEKTEDKEGKASAEAREGEEAAAEAEEKQPEEDFQCIVYFWQGREASNMGWLTFTFSLQKKFESLFPGKLEVVRMTQQQENPKFLSHFKRKFIIHRGKRKVTQGTLQPTLYQIRTNGSALCTRCIQINTDSSLLNSEFCFILKVPFESEDNQGIVYAWVGRASDPDEAKLAEDILNTMFDASYSKQVINEGEEPENFFWVGIGAQKPYDDDAEYMKHTRLFRCSNEKGYFAVTEKCSDFCQDDLADDDIMLLDNGQEVYMWVGTQTSQVEIKLSLKACQVYIQHTRSKEHERPRRLRLVRKGNEQRAFTRCFHAWSTFRQAPA
B2: Cysteine and glycine-rich protein 1 (protein, UniProt P97315 1-193)
chain: MPNWGGGKKCGVCQKTVYFAEEVQCEGNSFHKSCFLCMVCKKNLDSTTVAVHGEEIYCKSCYGKKYGPKGYGYGQGAGTLSTDKGESLGIKHEEAPGHRPTTNPNASKFAQKIGGSERCPRCSQAVYAAEKVIGAGKSWHKSCFRCAKCGKGLESTTLADKDGEIYCKGCYAKNFGPKGFGFGQGAGALVHSE
B3: α-2-HS-glycoprotein (protein, UniProt P29699 19-345)
chain: APQGTGLGFRELACDDPEAEQVALLAVDYLNNHLLQGFKQVLNQIDKVKVWSRRPFGVVYEMEVDTLETTCHALDPTPLANCSVRQLTEHAVEGDCDFHILKQDGQFRVMHTQCHSTPDSAEDVRKLCPRCPLLTPFNDTNVVHTVNTALAAFNTQNNGTYFKLVEISRAQNVPLPVSTLVEFVIAATDCTAKEVTDPAKCNLLAEKQHGFCKANLMHNLGGEEVSVACKLFQTQPQPANANAVGPVPTANAALPADPPASVVVGPVVVPRGLSDHRTYHDLRHAFSPVASVESASGETLHSPKVGQPGAAGPVSPMCPGRIRHFKI
B4: Destrin (protein, UniProt Q9R0P5 1-165)
chain: MASGVQVADEVCRIFYDMKVRKCSTPEEIKKRKKAVIFCLSADKKCIVVEEGKEILVGDVGATITDPFKHFVGMLPEKDCRYALYDASFETKESRKEELMFFLWAPEQAPLKSKMIYASSKDAIKKKFPGIKHEYQANGPEDLNRTCIAEKLGGSLIVAFEGSPV
B5: Tropomodulin-1 (protein, UniProt P49813 1-359)
chain: MSYRRELEKYRDLDEDEILGALTEEELRTLENELDELDPDNALLPAGLRQKDQTTKAPTGPFKREELLDHLEKQAKEFKDREDLVPYTGEKRGKVWVPKQKPMDPVLESVTLEPELEEALANASDAELCDIAAILGMHTLMSNQQYYQALGSSSIVNKEGLNSVIKPTQYKPVPDEEPNSTDVEETLERIKNNDPELEEVNLNNIRNIPIPTLKAYAEALKENSYVKKFSIVGTRSNDPVAFALAEMLKVNKVLKTLNVESNFISGAGILRLVEALPHNTSLVELKIDNQSQPLGNKVEMEIVNMLEKNTTLLKFGYHFTQQGPRLRASNAMMSNNDLVRKRRLADLTGPIIPKCRSGV
B6: Perilipin-4 (protein, UniProt O88492 1-1403)
chain: MSASGDGTRVPPKSKGKTLSSFFGSLPGFSSARNLVSHTHSSTSTKDLQTATDPSGTPAPSSKVSTNSQMAGDAAGLLQPSEQTAGDKDMGSFSVTSSEDAFSGVFGIMDAAKGMVQGGLGATQSALVGTKEAVSGGVMGAVGVAKGLVKGGLDTSKNVLTNTKDTVTTGVMGAANMAKGTVQTGLDTTKSVVMGTKDTVATGLAGAVNVAKGTIQGGLDTTKSVVMGTKDTVTTGLTGAVNVAKGVVQGGLDTTKSVVMGTKDTVTTGLTGAMNVAKGTAQMGIDTSKTVLTGTKDTVCAGATGAINVAKGAAQGGLDTTKSVLIGTKDTVTTGLTGAVNVAKGAVQGGLDTTKSVVMGTKDTVTTGLTGAMNVAKGTAQMGLGTSKTVLTGTKDTVCAGLTGAINVAKGAAQGGLDTTKSVLMGTKDTVTTGLTGAVNVAKGTIQGGLDTTKSVVMGTKDTVTTGLTGAVNVAKGTIQGGLDTTKSVVMGTKDTVTTGLTGAVNVAKGAAQGGLDTTKSVVMGTKDTVTTGLTGAMNVAKGTAQMGLGTSKTVLTGTKDTVCAGLTGAINVAKGAAQGGLDTTKSVLMGTKDTVTTGLTGAVNVAKGTIQGGLDTTKSVVMGTKDTVTTGLTGAVNVAKGAVQGGLDTTKSVVMGTKDTVTTGLTGALNVAKGTAQMGIDTSKTVLIGTKDTVCAGATGAINMAKGAAQGGLDTTKSVLMGTKDTVTTGLTGAINVAKGSAQGGLDTTKSVLIGTKDTVTTGLTGALNVAKGTVQTGLDTSQRVLTGTKDNVYAGVTGAVNVAKGTIQGGLDTTKSVVMGTKDTVTTGLTGAVNVAKGAVQGGLDTTKSVVMGTKDTVTTGLTGAMNVAKGTAQMGIDTSKTVLTGTKDTVCAGLTGAINVAKGATQGGLDTTKSVLMGTKDTVTTGLTGAINVAKGAAQGGLDTTKSVLLGTKDTVTTGLTGAANVAKETVQMGLDTSKNILMDTKDSICAGATGAITVVKGAAQGGLDTSNAALTGTMDTAKGTVQTSLDTSKHMLIGMKDTVCAGVTSAMNMAKGIHKNTDTTRDTQSSVLAHSGNVATNAIHTGVHTVPSSLSGSHSIICHEPSIYRATNHGVGQAILTSTESLCCETSSFSDKYGLGHVTEPRADTKTLVSGMASSACAATRSVEECGQLAATGFAALPDELKGLGDIFQPMTTEEQAQLAVSESGPRVLSADRGSYYIRLGDLAPSFRQRAFEHALSHIQHNQFQARAALAQLQEAFQMTDMTMEAACGKLCSDQSLNTMVEAVGSHEMRASVAQDRLCTLAHQLHAAYSSLVTSLQGLPEVQQQAGQARHSLCKLYGLVSSEAGSELQTEQLAQSSAGVVEAWQGLEVLLEKLQQNPPLSWLVGPFTSMPCGQL
B7: Myosin light polypeptide 6 (protein, UniProt Q60605 1-151)
chain: MCDFTEDQTAEFKEAFQLFDRTGDGKILYSQCGDVMRALGQNPTNAEVLKVLGNPKSDEMNVKVLDFEHFLPMLQTVAKNKDQGTYEDYVEGLRVFDKEGNGTVMGAEIRHVLVTLGEKMTEEEVEMLVAGHEDSNGCINYEAFVRHILSG
B8: Ribosome biogenesis regulatory protein homolog (protein, UniProt Q9CYH6 1-365)
chain: MEGQRVEELLAKAEQEEAEKLQRITVHKELELEFDLGNLLASDRNPPTVLRQAGPSPEAELRALARDNTQLLINQLWRLPTERVEEAVVARLPEPATRLPREKPLPRPRPLTRWQQFARLKGIRPKKKTNLVWDEASGQWRRRWGYKRARDDTKEWLIEVPGSADPMEDQFAKRTQAKKERVAKNELNRLRNLARAHKMQMPSSAGLHPTGHQSKEELGRAMQVAKVSTASVGRFQERLPKEKAPRGSGKKRKFQPLFGDFAAEKKNQLELLRVMNSKKPRLDVTRATNKQMREEDQEEAAKRRKMSQKGKRKGGRQGPSGKRKGGPPGQGEKRKGGLGSKKHSWPSALAGKKKGVPPQGGKRRK
B9: Protein Myl12a (protein, UniProt Q6ZWQ9 1-172)
chain: MSSKRAKTKTTKKRPQRATSNVFAMFDQSQIQEFKEAFNMIDQNRDGFIDKEDLHDMLASMGKNPTDEYLDAMMNEAPGPINFTMFLTMFGEKLNGTDPEDVIRNAFACFDEEAIGTIQEDYLRELLTTMGDRFTDEEVDELYREAPIDKKGNFNYIEFTRILKHGAKDKDD
B10: Calponin-1 (protein, UniProt Q08091 1-297)
chain: MSSAHFNRGPAYGLSAEVKNKLAQKYDHQREQELREWIEGVTGRRIGNNFMDGLKDGIILCEFINKLQPGSVKKVNESTQNWHQLENIGNFIKAITKYGVKPHDIFEANDLFENTNHTQVQSTLLALASMAKTKGNKVNVGVKYAEKQERRFEPEKLREGRNIIGLQMGTNKFASQQGMTAYGTRRHLYDPKLGTDQPLDQATISLQMGTNKGASQAGMTAPGTKRQIFEPGLGMEHCDTLNVSLQMGSNKGASQRGMTVYGLPRQVYDPKYCLNPEYPELSEPTHNHHPHNYYNSA
B11: Perilipin-1 (protein, UniProt Q8CGN5 1-517)
chain: MSMNKGPTLLDGDLPEQENVLQRVLQLPVVSGTCECFQKTYNSTKEAHPLVASVCNAYEKGVQGASNLAAWSMEPVVRRLSTQFTAANELACRGLDHLEEKIPALQYPPEKIASELKGTISTRLRSARNSISVPIASTSDKVLGATLAGCELALGMAKETAEYAANTRVGRLASGGADLALGSIEKVVEFLLPPDKESAPSSGRQRTQKAPKAKPSLVRRVSTLANTLSRHTMQTTAWALKQGHSLAMWIPGVAPLSSLAQWGASAAMQVVSRRQSEVRVPWLHNLAASQDESHDDQTDTEGEETDDEEEEEESEAEENVLREVTALPNPRGLLGGVVHTVQNTLRNTISAVTWAPAAVLGTVGRILHLTPAQAVSSTKGRAMSLSDALKGVTDNVVDTVVHYVPLPRLSLMEPESEFRDIDNPSAEAERKGSGARPASPESTPRPGQPRGSLRSVRGLSAPSCPGLDDKTEASARPGFLAMPREKPARRVSDSFFRPSVMEPILGRAQYSQLRKKS
B12: Tropomodulin-3 (protein, UniProt Q9JHJ0 1-352)
chain: MALPFRKDLGDYKDLDEDELLGKLSESELKQLETVLDDLDPENALLPAGFRQKNQTSKSATGPFDRERLLSYLEKQALEHKDRDDYVPYTGEKKGKIFIPKQKPAQTLTEETISLDPELEEALTSASDTELCDLAAILGMHNLIADTPFCDVLGSSNGVNQERFPNVVKGEKILPVFDEPPNPTNVEESLKRIRENDARLVEVNLNNIKNIPIPTLKDFAKTLEANTHVKHFSLAATRSNDPVAVAFADMLKVNKTLKSLNMESNFITGAGVLALIDALRDNETLMELKIDNQRQQLGTSVELEMAKMLEENTNILKFGYQFTQQGPRTRAANAITKNNDLVRKRRIEGDHQ

Target: Spinophilin (mouse (endogenous in pancreas and isolated islets)) (UniProt Q6R891)
Experiment: affinity purification with mass spectrometry; spinophilin immunoprecipitated from pancreas of WT chow-fed, WT high-fat diet-fed and Spino^-/- high-fat diet-fed male mice; on-bead digestion, TMT10plex; hits filtered by WT/KO log2 fold-enrichment of 0.5 and two unique peptides, listed hits increased in HFF vs. lean

binding, binds:
B1, B2, B3, B4, B5, B6, B7, B8, B9, B10, B11, B12
